The assay deals with phosphorylated Akt (p-Akt) (human (endogenous in HBF)) (UniProt P31749). As to the kind of experiment: co-IP; lysates of HBFs infected with HSALR1-overexpression or control lentivirus; magnetic beads with anti-p-AKT antibody (IgG as control), overnight at 4°C; Western blot of the eluate.

Sequences of proteins named here, by UniProt entry; tags and fusion partners are left off.
UniProt P31749: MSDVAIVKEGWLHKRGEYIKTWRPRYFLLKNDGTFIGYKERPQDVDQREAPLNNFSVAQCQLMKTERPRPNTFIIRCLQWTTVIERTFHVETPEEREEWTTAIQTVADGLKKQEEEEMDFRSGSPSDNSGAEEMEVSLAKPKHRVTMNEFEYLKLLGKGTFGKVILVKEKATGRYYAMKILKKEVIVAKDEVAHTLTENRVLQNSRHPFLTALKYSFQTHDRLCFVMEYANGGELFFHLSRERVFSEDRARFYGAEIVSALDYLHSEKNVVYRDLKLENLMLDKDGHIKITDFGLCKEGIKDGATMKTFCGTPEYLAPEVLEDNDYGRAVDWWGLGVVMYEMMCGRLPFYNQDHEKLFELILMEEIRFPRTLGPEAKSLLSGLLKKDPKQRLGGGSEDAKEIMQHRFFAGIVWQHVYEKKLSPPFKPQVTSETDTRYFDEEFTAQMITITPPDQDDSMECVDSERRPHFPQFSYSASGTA

These are yes or no findings as the source states them, for the method shown. Binding seen in cells or lysates may run through a third protein. Some results given as binding are weak or reduced against the parent protein; the word gives no strength.

B1: CDC37 (protein, UniProt Q16543 1-378)
chain: MVDYSVWDHIEVSDDEDETHPNIDTASLFRWRHQARVERMEQFQKEKEELDRGCRECKRKVAECQRKLKELEVAEGGKAELERLQAEAQQLRKEERSWEQKLEEMRKKEKSMPWNVDTLSKDGFSKSMVNTKPEKTEEDSEEVREQKHKTFVEKYEKQIKHFGMLRRWDDSQKYLSDNVHLVCEETANYLVIWCIDLEVEEKCALMEQVAHQTIVMQFILELAKSLKVDPRACFRQFFTKIKTADRQYMEGFNDELEAFKERVRGRAKLRIEKAMKEYEEEERKKRLGPGGLDPVEVYESLPEELQKCFDVKDVQMLQDAISKMDPTDAKYHMQRCIDSGLWVPNSKASEAKEGEEAGPGDPLLEAVPKTGDEKDVSV
As to B1, the binding result is given as “binds”.

For the origin of these results see article PMC10267427.
